Laboratory results reported in PubChem BioAssay AID504834 (National Center for Advancing Translational Sciences (NCATS), 2011).
Screen size: about 320,000 compounds; about 22,000 (6.9%) were called active. The shares of active, inactive and inconclusive entries below differ from those in the screen. The call rests on the fitted dose curve; in most records, active means well fitted inhibition curve with a large enough effect; inconclusive means small, poorly fitted or top-dose-only effect, or another doubt; inactive means no such curve, though single readings can be large or run the other way. A potency beside an inconclusive call is a rough fit, not a confirmed value.

test: Primary qHTS for delayed death inhibitors of the malarial parasite plastid, 96 hour incubation; conditions: P. falciparum luciferase reporter growth; series mostly up to 28.7 µM
In short: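 Two-generation exposure (96 h) targets delayed-death phenotype. Reporter parasites carrying integrated firefly luciferase, in red cells at 2% hematocrit and 0.05% parasitemia final, kept at 37 C, 5% CO2; luminescence loss indicates inhibition.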
Potency means the concentration at half of the fitted maximal effect.

| Compound | Potency |
| --- | --- |
| COc1cc2c(C)nc3c(cnn3-c3ccccc3)c2cc1OC | inactive |
| COc1ccc(CCNC(=O)C(=O)NCc2ccc(Cl)cc2)cc1OC | inactive |
| CCOc1ccc(Br)cc1S(=O)(=O)Nc1ccc(N2CCOCC2)cc1 | inconclusive: 18.5 µM [inhibitor, single point] |
| Cc1ccc(C2/C(=C(\O)c3ccc4c(c3)OCCO4)C(=O)C(=O)N2CC2CCCO2)cc1 (centres undefined) | inconclusive: 18.5 µM [inhibitor, single point] |
| O=c1[nH]c2ccc(S(=O)(=O)N3CCCCC3)cc2o1 | active: 10.4 µM |
| O=C(/C=C/c1ccc(Cl)cc1)N1CCN(c2ccc(Cl)cc2[N+](=O)[O-])CC1 | inconclusive: 0.104 µM [inhibitor, partial curve, poor fit] |
| CC(=O)Nc1ccc(NC(=O)c2ccc(Cn3cc(Cl)cn3)cc2)cc1 | inconclusive: 4.65 µM [inhibitor, partial curve, poor fit] |
| CC(=O)NC(Cc1ccccc1F)C(=O)NC1CCN(c2ncccc2[N+](=O)[O-])CC1 (centres undefined) | inconclusive: 5.86 µM [inhibitor, partial curve, poor fit] |
| COC(CNC(=O)c1ccc2c(c1)nc(C)n2-c1cc(C)cc(C)c1)OC | inconclusive: 3.7 µM [inhibitor, full curve] |
| Cc1cc(NS(=O)(=O)c2ccc(Cl)cc2)nn1CC(=O)NCc1ccco1 | inconclusive: 18.5 µM [inhibitor, single point] |
| C=CCNc1nc(C(=O)OCC(=O)c2cccc(Br)c2)cs1 | inactive |
| Cc1nc(C)c(-c2ccc(SCC(=O)Nc3ccccc3)nn2)s1 | inconclusive: 18.5 µM [inhibitor, single point] |
| C=CCn1c(COc2ccccc2F)nnc1SCC(=O)N1CC(=O)Nc2ccccc21 | active: 8.28 µM |
| N=C1/C(=C\c2ccc(OCc3ccccc3)cc2)C(=O)N=C2SC(N3CCCC3)=NN12 | inactive |
| O=C1CC(Nc2ccc(N3CCOCC3)cc2)C(=O)N1Cc1ccccc1 (centres undefined) | inconclusive: 11.7 µM [inhibitor, single point] |
| CCc1cc(C(=O)O)c(NC(=O)/C=C/c2ccc(OC)c(OC)c2)s1 | inconclusive: 18.5 µM [inhibitor, single point] |
| O=C(NCC1CCCN(Cc2cccc(C(F)(F)F)c2)C1)c1ccc(F)cc1 (centres undefined) | inconclusive: 11.7 µM [inhibitor, partial curve] |
| CCc1ccc(NC(=O)CN2CCC(C(=O)c3ccc(OC)cc3)CC2)cc1 | inconclusive: 10.4 µM [inhibitor, single point] |
| Cn1cccc1C(=O)C(=O)Nc1cc(Cl)cc(Cl)c1 | inconclusive: 0.329 µM [inhibitor, full curve, poor fit] |
| CCOCCCNCC(=O)Nc1ccc(S(=O)(=O)NC(C)CC)cc1 (centres undefined) | inactive |
| Cc1ccc(CN(Cc2cc3cccc(C)c3[nH]c2=O)C(=O)N(C)C)cc1 | inconclusive: 4.15 µM [inhibitor, single point] |
| CCN(C(=O)COc1cc(=O)n(CC)c2ccccc12)c1cc(Cl)ccc1OC | inconclusive: 14.7 µM [inhibitor, partial curve, poor fit] |
| CCCCNC(=O)c1ccc2c(SCC(=O)O)c3c(nc2c1)CCCC3 | inconclusive: 18.5 µM [inhibitor, single point] |

21 neighbouring entries already listed, for reference:

| Compound | Potency |
| --- | --- |
| COc1ccc(CCNC(=O)C(=O)NCc2ccc(Cl)cc2)cc1OC | inactive |
| CCOc1ccc(Br)cc1S(=O)(=O)Nc1ccc(N2CCOCC2)cc1 | inconclusive: 18.5 µM [inhibitor, single point] |
| Cc1ccc(C2/C(=C(\O)c3ccc4c(c3)OCCO4)C(=O)C(=O)N2CC2CCCO2)cc1 (centres undefined) | inconclusive: 18.5 µM [inhibitor, single point] |
| O=c1[nH]c2ccc(S(=O)(=O)N3CCCCC3)cc2o1 | active: 10.4 µM |
| O=C(/C=C/c1ccc(Cl)cc1)N1CCN(c2ccc(Cl)cc2[N+](=O)[O-])CC1 | inconclusive: 0.104 µM [inhibitor, partial curve, poor fit] |
| CC(=O)Nc1ccc(NC(=O)c2ccc(Cn3cc(Cl)cn3)cc2)cc1 | inconclusive: 4.65 µM [inhibitor, partial curve, poor fit] |
| CC(=O)NC(Cc1ccccc1F)C(=O)NC1CCN(c2ncccc2[N+](=O)[O-])CC1 (centres undefined) | inconclusive: 5.86 µM [inhibitor, partial curve, poor fit] |
| COC(CNC(=O)c1ccc2c(c1)nc(C)n2-c1cc(C)cc(C)c1)OC | inconclusive: 3.7 µM [inhibitor, full curve] |
| Cc1cc(NS(=O)(=O)c2ccc(Cl)cc2)nn1CC(=O)NCc1ccco1 | inconclusive: 18.5 µM [inhibitor, single point] |
| C=CCNc1nc(C(=O)OCC(=O)c2cccc(Br)c2)cs1 | inactive |
| Cc1nc(C)c(-c2ccc(SCC(=O)Nc3ccccc3)nn2)s1 | inconclusive: 18.5 µM [inhibitor, single point] |
| C=CCn1c(COc2ccccc2F)nnc1SCC(=O)N1CC(=O)Nc2ccccc21 | active: 8.28 µM |
| N=C1/C(=C\c2ccc(OCc3ccccc3)cc2)C(=O)N=C2SC(N3CCCC3)=NN12 | inactive |
| O=C1CC(Nc2ccc(N3CCOCC3)cc2)C(=O)N1Cc1ccccc1 (centres undefined) | inconclusive: 11.7 µM [inhibitor, single point] |
| CCc1cc(C(=O)O)c(NC(=O)/C=C/c2ccc(OC)c(OC)c2)s1 | inconclusive: 18.5 µM [inhibitor, single point] |
| O=C(NCC1CCCN(Cc2cccc(C(F)(F)F)c2)C1)c1ccc(F)cc1 (centres undefined) | inconclusive: 11.7 µM [inhibitor, partial curve] |
| CCc1ccc(NC(=O)CN2CCC(C(=O)c3ccc(OC)cc3)CC2)cc1 | inconclusive: 10.4 µM [inhibitor, single point] |
| Cn1cccc1C(=O)C(=O)Nc1cc(Cl)cc(Cl)c1 | inconclusive: 0.329 µM [inhibitor, full curve, poor fit] |
| CCOCCCNCC(=O)Nc1ccc(S(=O)(=O)NC(C)CC)cc1 (centres undefined) | inactive |
| Cc1ccc(CN(Cc2cc3cccc(C)c3[nH]c2=O)C(=O)N(C)C)cc1 | inconclusive: 4.15 µM [inhibitor, single point] |
| CCN(C(=O)COc1cc(=O)n(CC)c2ccccc12)c1cc(Cl)ccc1OC | inconclusive: 14.7 µM [inhibitor, partial curve, poor fit] |

Later entries:

| Compound | Potency |
| --- | --- |
| Cc1ccc(NC(=O)C2CCN(S(=O)(=O)c3cccnc3)CC2)cc1C | inconclusive: 18.5 µM [inhibitor, single point] |
| COc1ccc(CCN2CC(C(=O)OCC(=O)N(C)Cc3ccccc3)CC2=O)cc1OC (centres undefined) | inactive |
| c1ccc(Nc2nc(-c3ccncc3)nc3ccccc23)cc1 | inconclusive: 10.4 µM [inhibitor, partial curve] |
| O=C(NCCc1nnc2ccc(N3CCCCCC3)nn12)c1ccccc1 | inconclusive: 10.4 µM [inhibitor, single point] |
| C=CCSc1nc2ccccc2n1C(=O)/C=C/c1cc(OC)c(OC)c(OC)c1 | inactive |
| Cc1ccc(Cn2nnc3c(=O)n(Cc4cc(C)ccc4C)cnc32)cc1 | active: 1.47 µM |
| COc1ccc(CCNC(=O)c2cccc3ccccc23)cc1OC | inconclusive: 9.28 µM [inhibitor, single point] |
| O=C(N/N=C/c1cccc(O)c1)c1ccc(COc2cccc3cccnc23)cc1 | inconclusive: 10.4 µM [inhibitor, single point] |
| Cc1ccc(C2=CC(=O)C[C@H](c3ccc(F)cc3)C2)cc1 | inconclusive: 9.28 µM [inhibitor, single point] |
| O=S(=O)(c1ccc2oc3ccccc3c2c1)N1CCCC1 | inactive |
| Cc1ccc(Nc2nc(C(=O)NCCCN3CCOCC3)cs2)cc1 | inactive |
| CCc1ccc(CN(C)C(=O)CC2C(=O)NCCN2Cc2ccoc2)cc1 (centres undefined) | inconclusive: 13.1 µM [inhibitor, partial curve, poor fit] |
| O=C(NNC(=O)c1cccs1)c1ccc(S(=O)(=O)N2CCCCC2)cc1 | inconclusive: 14.7 µM [inhibitor, partial curve, poor fit] |
| COCc1c(C(=O)N(C)Cc2ccccc2N2CCCC2)oc2ccccc12 | active: 9.28 µM |
| CCC(=O)N1CCCc2cc(S(=O)(=O)N3CCN(C4CCCCC4)CC3)ccc21 | inconclusive: 0.329 µM [inhibitor, full curve, poor fit] |
| C(=N\Nc1nc(-c2ccccc2)cs1)/c1ccncc1 | inconclusive: 18.5 µM [inhibitor, single point] |
| O=C(NCCc1ccc(F)cc1)c1ccc(Cl)c(S(=O)(=O)N2CCOCC2)c1 | active: 11.7 µM |
| CN1C(=O)[C@H]2[C@@H](/C=C/c3ccccc3)N3C(=O)CN(Cc4ccc(-c5ccccc5)cc4)C(=O)[C@@]3(Cc3ccccc3)[C@H]2C1=O | inconclusive: 4.15 µM [inhibitor, partial curve, poor fit] |
| C=CCNC(=S)N/N=C/c1ccc(C(F)(F)F)cc1 | inconclusive: 13.1 µM [inhibitor, partial curve, poor fit] |
| COC(=O)[C@@H](NC(=O)N1CCN(c2cccc(C(F)(F)F)c2)CC1)C(C)C | inconclusive: 18.5 µM [inhibitor, single point] |
| CC12CN(C(=O)c3cccc([N+](=O)[O-])c3)C3(C#N)CC1CCC23C (centres undefined) | inactive |
| O=C(O)COc1ccc(NC(=O)c2ccc3c(c2)C(=O)N(C2CCCCC2)C3=O)cc1 | inactive |
| COc1ccc(N2C(=O)CSC2c2cccs2)cc1 (centres undefined) | inactive |

| Compound | Potency |
| --- | --- |
| O=C(NCCOc1ccccc1F)c1ccc2c(=O)n3c(nc2c1)CCC3 | inactive |
| Cc1ccc(S(=O)(=O)N2CCN(Cc3cc(C(C)C)ccc3O)CC2)cc1 | active: 10.4 µM |
| Cc1nnc(Sc2cc(C(=O)NCCCN(C)Cc3ccccc3)c3ccccc3n2)s1 | active: 2.08 µM |
| COc1cc(-c2cc(C(=O)Nc3cccc(S(=O)(=O)N(C)C)c3)c3ccccc3n2)cc(OC)c1OC | inconclusive: 2.08 µM [inhibitor, partial curve, poor fit] |
| COc1cccc(NC(=O)CCCOc2cc(=O)n(C)c3ccccc23)c1 | inactive |
| O=C(O)CC1OCC=C2CN3CCC45C6=CC(=O)C(=O)C([N+](=O)[O-])=C6NC4C1C2CC35 (centres undefined) | inconclusive: 18.5 µM [inhibitor, single point] |
| NC(=O)c1ccc(-c2ncc(-c3ccccc3)o2)cc1 | inconclusive: 18.5 µM [inhibitor, single point] |
| Cc1nnc(NC2(C(F)(F)F)C(=O)Nc3c2c(=O)n(C)c(=O)n3C)s1 (centres undefined) | inconclusive: 18.5 µM [inhibitor, single point] |
| COc1cc(C(=O)Nc2cccc(NC(=O)c3cccs3)c2)cc(OC)c1OC | inactive |
| COc1cc2c(cc1OC)C1=C(C#N)CN(C3CCCCC3)CN1CC2 | inconclusive: 5.22 µM [inhibitor, partial curve, poor fit] |
| CCc1ccc2c(c1)c1nnc(NN)nc1n2CC | inconclusive: 18.5 µM [inhibitor, single point] |
| CCc1c(C)nc2cc(-c3cccc(Br)c3)[nH]n2c1=O | inactive |
| Cc1ccc(S(=O)(=O)N2CCC(Oc3ccc(-n4cnnn4)cc3)CC2)cc1 | inactive |
| Cc1ccc(C(=O)OCC(=O)NCc2ccccc2)cc1S(=O)(=O)N1CCCCC1 | inconclusive: 10.4 µM [inhibitor, single point] |
| Cc1cc(/C=C2\C(=O)NC(=O)N(c3ccc(F)cc3)C2=O)c(C)n1-c1ccc(C(=O)O)cc1 | inconclusive: 8.28 µM [inhibitor, partial curve, poor fit] |
| CCOc1ccc(NC(=O)CN2CCCC2c2cccs2)cc1S(=O)(=O)N1CCCCC1 (centres undefined) | inconclusive: 11.7 µM [inhibitor, single point] |
| CCOC(=O)c1c(C)[nH]c(C(=O)OCC(=O)Nc2cc(Cl)ccc2OC)c1C | inactive |
| CC(=O)NC(CC(=O)Nc1cccc(S(=O)(=O)N2CCOCC2)c1)c1ccccc1 (centres undefined) | inactive |
| O=C(c1ccc(Cl)c(S(=O)(=O)NCc2ccccc2)c1)N1CCN(c2ccccn2)CC1 | active: 4.65 µM |
| CC1(C)CC(=O)c2c(S(C)(=O)=O)sc(Br)c2C1 | inconclusive: 3.7 µM [inhibitor, single point] |
| O=C(c1cc(COc2c(F)cccc2F)on1)N1CCCCCC1 | inactive |
| CCN(CC)CCCn1c(=S)[nH]c2ccccc2c1=O | inconclusive: 18.5 µM [inhibitor, single point] |
| O=C(NCCN1CCOCC1)c1cc(Cl)ccc1[N+](=O)[O-] | inconclusive: 14.7 µM [inhibitor, single point] |
